Measured data: PubChem BioAssay AID652272 (Drosophila RNAi Screening Center, 2013)

Aim: 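Finding fly genes that regulate Hedgehog signal transduction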 (primary screen)
System: Drosophila clone 8 (Cl8) cells
Reagents: long dsRNA against Drosophila genes
Measured: 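Firefly light from a Hedgehog-responsive ptc promoter reporter and Renilla reference light, both read on a plate reader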
Reading the numbers: firefly Hh reporter signal: higher = more ptc reporter light; Renilla reference signal: higher = more Renilla control light
Call rule: 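Hit when the z-score averaged over two replicates is under -2 or over +3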
Calls: active = hit: reporter lowered or raised; inactive = not a hit
The screen tested about 21,000 reagents; shown is an unselected part of those with a known target gene and a result. Over the whole deposit, 503 (2.4%) got an active call. 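Raw plate light values, not normalised; calls rest on replicate z-scores that were not deposited; hits include reporter decreases as well as increases.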 Names joined by + are all predicted targets of the reagent. Reagent sequences are not shown. The record does not give: the amount of reagent, the time to read-out.

{"gene": "fd96Cb", "DRSC id": "DRSC16947", "firefly Hh reporter signal, replicate 1": 4.07e5, "firefly Hh reporter signal, replicate 2": 80531, "Renilla reference signal, replicate 1": 21424, "Renilla reference signal, replicate 2": 2730, "call": "inactive"}
{"gene": "rad (retired record)", "DRSC id": "DRSC18966", "firefly Hh reporter signal, replicate 1": 4.40e5, "firefly Hh reporter signal, replicate 2": 1.28e5, "Renilla reference signal, replicate 1": 19737, "Renilla reference signal, replicate 2": 2611, "call": "inactive"}
{"gene": "rad (retired record)", "DRSC id": "DRSC19687", "firefly Hh reporter signal, replicate 1": 1.01e5, "firefly Hh reporter signal, replicate 2": 6.17e5, "firefly Hh reporter signal, replicate 3": 3.48e5, "Renilla reference signal, replicate 1": 2941, "Renilla reference signal, replicate 2": 3734, "call": "inactive"}
{"gene": "rad (retired record)", "DRSC id": "DRSC19816", "firefly Hh reporter signal, replicate 1": 42636, "firefly Hh reporter signal, replicate 2": 1.31e5, "Renilla reference signal, replicate 1": 1138, "Renilla reference signal, replicate 2": 3762, "call": "inactive"}
{"gene": "CG43058", "DRSC id": "DRSC05434", "firefly Hh reporter signal, replicate 1": 1.03e5, "firefly Hh reporter signal, replicate 2": 2.26e5, "Renilla reference signal, replicate 1": 2731, "Renilla reference signal, replicate 2": 8779, "call": "inactive"}
{"gene": "Lhr", "DRSC id": "DRSC06759", "firefly Hh reporter signal, replicate 1": 63555, "firefly Hh reporter signal, replicate 2": 57120, "Renilla reference signal, replicate 1": 4897, "Renilla reference signal, replicate 2": 3724, "call": "active"}
{"gene": "yin", "DRSC id": "DRSC18854", "firefly Hh reporter signal, replicate 1": 2.02e5, "firefly Hh reporter signal, replicate 2": 1.45e5, "Renilla reference signal, replicate 1": 4342, "Renilla reference signal, replicate 2": 4412, "call": "inactive"}
{"gene": "Tssk", "DRSC id": "DRSC14784", "firefly Hh reporter signal, replicate 1": 6.08e5, "firefly Hh reporter signal, replicate 2": 93593, "Renilla reference signal, replicate 1": 29384, "Renilla reference signal, replicate 2": 2664, "call": "inactive"}
{"gene": "CG14757", "DRSC id": "DRSC06492", "firefly Hh reporter signal, replicate 1": 97936, "firefly Hh reporter signal, replicate 2": 55648, "Renilla reference signal, replicate 1": 2245, "Renilla reference signal, replicate 2": 4096, "call": "inactive"}

3 entries from above, set out differently.
CG43058 [DRSC05434]
- firefly Hh reporter signal, replicate 1: 1.03e5
- firefly Hh reporter signal, replicate 2: 2.26e5
- Renilla reference signal, replicate 1: 2731
- Renilla reference signal, replicate 2: 8779
- call: inactive

Lhr [DRSC06759]
- firefly Hh reporter signal, replicate 1: 63555
- firefly Hh reporter signal, replicate 2: 57120
- Renilla reference signal, replicate 1: 4897
- Renilla reference signal, replicate 2: 3724
- call: active

yin [DRSC18854]
- firefly Hh reporter signal, replicate 1: 2.02e5
- firefly Hh reporter signal, replicate 2: 1.45e5
- Renilla reference signal, replicate 1: 4342
- Renilla reference signal, replicate 2: 4412
- call: inactive

Next entries follow:
{"gene": "brat", "DRSC id": "DRSC03497", "firefly Hh reporter signal, replicate 1": 89030, "firefly Hh reporter signal, replicate 2": 79142, "Renilla reference signal, replicate 1": 4256, "Renilla reference signal, replicate 2": 3622, "call": "inactive"}
{"gene": "CG34281", "DRSC id": "DRSC14807", "firefly Hh reporter signal, replicate 1": 78567, "firefly Hh reporter signal, replicate 2": 78217, "Renilla reference signal, replicate 1": 3056, "Renilla reference signal, replicate 2": 1027, "call": "inactive"}
{"gene": "AttC", "DRSC id": "DRSC06886", "firefly Hh reporter signal, replicate 1": 68752, "firefly Hh reporter signal, replicate 2": 61210, "Renilla reference signal, replicate 1": 1494, "Renilla reference signal, replicate 2": 3917, "call": "inactive"}
{"gene": "Nmdar2", "DRSC id": "DRSC18183", "firefly Hh reporter signal, replicate 1": 1.21e5, "firefly Hh reporter signal, replicate 2": 2.46e5, "Renilla reference signal, replicate 1": 4832, "Renilla reference signal, replicate 2": 9595, "call": "inactive"}
{"gene": "Nmdar2", "DRSC id": "DRSC18511", "firefly Hh reporter signal, replicate 1": 1.24e5, "firefly Hh reporter signal, replicate 2": 2.90e5, "Renilla reference signal, replicate 1": 4448, "Renilla reference signal, replicate 2": 11373, "call": "inactive"}
{"gene": "Nmdar2", "DRSC id": "DRSC18569", "firefly Hh reporter signal, replicate 1": 1.04e5, "firefly Hh reporter signal, replicate 2": 2.13e5, "Renilla reference signal, replicate 1": 3936, "Renilla reference signal, replicate 2": 8345, "call": "inactive"}
{"gene": "CG14104", "DRSC id": "DRSC10106", "firefly Hh reporter signal, replicate 1": 1.04e5, "firefly Hh reporter signal, replicate 2": 1.27e5, "Renilla reference signal, replicate 1": 3900, "Renilla reference signal, replicate 2": 3789, "call": "inactive"}
{"gene": "disco", "DRSC id": "DRSC20323", "firefly Hh reporter signal, replicate 1": 60647, "firefly Hh reporter signal, replicate 2": 2.32e5, "Renilla reference signal, replicate 1": 870, "Renilla reference signal, replicate 2": 9308, "call": "inactive"}
{"gene": "moi + Tgs1", "DRSC id": "DRSC16371", "firefly Hh reporter signal, replicate 1": 4.93e5, "firefly Hh reporter signal, replicate 2": 81072, "Renilla reference signal, replicate 1": 26633, "Renilla reference signal, replicate 2": 1905, "call": "inactive"}
{"gene": "CG4955", "DRSC id": "DRSC19927", "firefly Hh reporter signal, replicate 1": 1.02e5, "firefly Hh reporter signal, replicate 2": 1.53e5, "Renilla reference signal, replicate 1": 2315, "Renilla reference signal, replicate 2": 2870, "call": "inactive"}
{"gene": "Not11", "DRSC id": "DRSC04204", "firefly Hh reporter signal, replicate 1": 69836, "firefly Hh reporter signal, replicate 2": 78006, "Renilla reference signal, replicate 1": 1289, "Renilla reference signal, replicate 2": 6208, "call": "inactive"}
{"gene": "CG9806", "DRSC id": "DRSC18444", "firefly Hh reporter signal, replicate 1": 57747, "firefly Hh reporter signal, replicate 2": 1.89e5, "Renilla reference signal, replicate 1": 2013, "Renilla reference signal, replicate 2": 8135, "call": "inactive"}
